Laboratory results: PubChem BioAssay AID720505 (Drosophila RNAi Screening Center, 2013)

Assay: 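Fly regulators or components of the CRAC channel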 (primary screen)
Cell system: Drosophila S2R+ cells
Reagents: long dsRNA against Drosophila genes
Treatment: thapsigargin (2 µM) in calcium-free buffer to empty internal stores, then 2 mM calcium added back
Measured: 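Fluo-4 signal in 384-well plates read on a FLIPR after thapsigargin (2 µM, calcium-free) store depletion and 2 mM calcium add-back; unnormalised mean endpoint per well; screen run twice, selected wells retested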
Direction: calcium signal and retest calcium signal: higher = more calcium entry after store depletion
Rule for the call: 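Knock-downs counted as hits when calcium entry dropped relative to STIM1 positive and Rho1 negative controls present on each plate; roughly 1500 genes called, with reductions of differing size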
Meaning of the calls: active = called as lowering calcium entry; inactive = not called
The screen tested about 20,000 reagents; below is an unselected part of those with a known target gene and a result. Of all reagents, about 2,100 (10%) are marked active. 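Raw plate signals without normalisation; calls rest on control-based scores that were not deposited; replicate 2 separates called from uncalled poorly.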 Unmarked entries are inactive. Names joined by + are all predicted targets of the reagent. Not stated in the record: the amount of reagent, the time to read-out.

gene | amplicon | calcium signal, replicate 1 | calcium signal, replicate 2 | retest calcium signal, replicate 1 | retest calcium signal, replicate 2
Hmgcr | DRSC16704 | 80.5 (active) | 81.1 | – | –
CG7330 | DRSC10813 | 95.1 | 129 | – | –
CG7330 | DRSC10814 | 88.6 | 128 | – | –
Cdc42 | DRSC20228 | 103 | 108 | – | –
Rpp21 | DRSC22480 | 102 | 251 | – | –
CG17618 (retired record) + CG45049 | DRSC16163 | 205 | 145 | – | –
CG17618 (retired record) + CG45049 | DRSC22054 | 91 | 188 | – | –
CG17618 (retired record) + CG45049 | DRSC23175 | 70.5 | 106 | – | –
CG5808 | DRSC14124 | 159 | 225 | – | –
CG1161 | DRSC12180 | 102 | 116 | – | –
holn1 | DRSC02827 | 117 | 125 | – | –
holn1 | DRSC22822 | 90 | 84.6 | – | –
VhaPPA1-2 | DRSC16176 | 129 | 219 | – | –
Tsp42Er | DRSC06183 | 102 | 74.6 | – | –
CG11902 | DRSC14434 | 255 | 106 | 132 | 111
CG8202 | DRSC16396 | 79.3 | 169 | – | –
CG15124 | DRSC06546 | 188 | 165 | – | –
Capr | DRSC10346 | 65.5 | 164 | – | –
CG14111 | DRSC10114 | 100 | 112 | – | –
CG11498 | DRSC14315 | 218 | 138 | – | –
Duox | DRSC00571 | 138 | 141 | – | –
Sytbeta | DRSC10009 | 78.2 | 163 | – | –
Sytbeta | DRSC10351 | 104 | 161 | – | –
CG30496 | DRSC06805 | 153 | 76.7 | – | –
CG42680 | DRSC01399 | 155 | 93 | – | –
alph | DRSC15398 | 101 | 102 | – | –
asRNA:CR43430 + hts | DRSC07629 | 161 | 163 | – | –
chas | DRSC19508 | 101 | 116 | – | –
chas | DRSC19509 | 98.3 | 116 | – | –
CG7246 | DRSC18422 | 168 | 178 | – | –
Alp6 | DRSC06710 | 204 | 135 | – | –
AsnRS-m | DRSC07010 | 196 | 139 | – | –
CG15199 | DRSC19646 | 66.9 | 92.3 | – | –
Rab26 | DRSC11837 | 52.1 (active) | 171 | – | –
Rab26 | DRSC11838 | 81.8 | 90.2 | – | –
Rab26 | DRSC11839 | 61.2 (active) | 113 | – | –
SCAR | DRSC03426 | 139 | 168 | – | –
Or65c | DRSC21312 | 116 | 75.5 | – | –
DCP2 | DRSC10597 | 160 | 95.6 | – | –
LysD + LysC (retired record) | DRSC08674 | 59.7 | 96.6 | – | –
LysD + LysC (retired record) | DRSC22743 | 113 | 214 | – | –
CG31380 | DRSC15688 | 203 | 136 | – | –
CG17764 | DRSC18135 | 275 | 73.7 | – | –
CG17764 | DRSC23055 | 101 | 136 | – | –
CG33919 | DRSC04940 | 124 | 126 | – | –
CG12360 (retired record) | DRSC14505 | 72.8 | 158 | – | –
Drsl6 | DRSC08161 | 60.8 | 93.7 | – | –
CG6665 | DRSC07006 | 116 | 87.5 | – | –
CG17652 | DRSC00511 | 184 | 143 | – | –
Cpr11A | DRSC19861 | 92.8 | 89.9 | – | –
CG15529 | DRSC15066 | 234 | 155 | – | –
CG11700 | DRSC17794 | 29.9 (active) | 43.1 | – | –
CG1092 | DRSC12151 | 137 | 124 | – | –
CG11696 | DRSC19417 | 177 | 98 | – | –
Src42A | DRSC04865 | 111 | 126 | – | –
Src42A | DRSC04915 | 154 | 168 | – | –
lncRNA:CR43491 | DRSC19184 | 103 | 102 | – | –
htl | DRSC16968 | 163 | 296 | – | –
CG15731 | DRSC19698 | 46.8 (active) | 104 | – | –
CG15731 | DRSC21820 | 179 | 67.1 | – | –
CG8738 | DRSC07256 | 121 | 173 | – | –
su(w[a]) | DRSC18840 | 120 | 194 | – | –
drongo | DRSC00814 | 167 | 222 | – | –
arm | DRSC18738 | 88.7 | 106 | – | –
CG1631 | DRSC20535 | 141 | 99.7 | – | –
CoRest | DRSC19881 | 67.7 (active) | 97.6 | – | –
CoRest | DRSC21626 | 112 | 98.3 | – | –
CoRest | DRSC22305 | 108 | 212 | – | –
Rop | DRSC08693 | 112 | 80.8 | – | –
CG5235 | DRSC10494 | 104 | 217 | – | –
CG10013 | DRSC14175 | 111 | 167 | – | –
CG31952 | DRSC00428 | 185 | 148 | – | –
CG31952 | DRSC21997 | 104 | 199 | – | –
CG15160 | DRSC02461 | 120 | 102 | – | –
CG5790 | DRSC02896 | 84 | 102 | – | –
dbe | DRSC00811 | 88.9 | 164 | – | –
CG4983 | DRSC02799 | 106 | 91.5 | – | –
Tim8 | DRSC20291 | 83.8 | 83.2 | – | –
CG33155 + mRpL53 | DRSC05461 | 86.4 | 154 | – | –
CG12730 | DRSC17885 | 156 | 90.4 | – | –
CG10417 | DRSC04846 | 142 | 110 | – | –
CG14182 | DRSC10181 | 104 | 140 | – | –
CG11842 | DRSC14400 | 58.4 (active) | 98.1 | – | –
CheB53b | DRSC05613 | 54.4 (active) | 106 | – | –
e(y)3 | DRSC19450 | 138 | 167 | – | –
CG13869 + CG11099 | DRSC06428 | 127 | 114 | – | –
CG43100 (retired record) | DRSC01001 | 138 | 97.9 | – | –
Ctl2 | DRSC14423 | 99 | 126 | – | –
CG4839 | DRSC02783 | 104 | 158 | – | –
CG4839 | DRSC02784 | 109 | 91.5 | – | –
Cadps | DRSC21057 | 119 | 96.3 | – | –
Cadps | DRSC22200 | 117 | 227 | – | –
CG13877 + pyx | DRSC08347 | 91.5 | 140 | – | –
CG16852 | DRSC01876 | 123 | 127 | – | –
Hsp23 | DRSC11188 | 121 | 132 | – | –
Strump | DRSC09872 | 92.5 | 160 | – | –
CG8089 | DRSC07074 | 118 | 176 | – | –
yps | DRSC11411 | 89.9 | 86.3 | – | –
CG15577 | DRSC18065 | 235 | 117 | – | –
CG4593 | DRSC18374 | 195 | 91.6 | – | –
CG8958 | DRSC20134 | 89.9 | 140 | – | –
IleRS-m | DRSC10506 | 92.2 | 193 | – | –
CG9135 | DRSC03144 | 98.8 | 198 | – | –
Aldh-III | DRSC06047 | 61.9 (active) | 205 | – | –
GstT1 | DRSC06243 | 124 | 150 | – | –
CG7059 | DRSC16187 | 206 | 183 | – | –
